Laboratory results reported in patent US11292776B2, “Small molecule inhibitors of fungal hyphae and biofilm formation” (University of Sharjah, priority 2019, dated 2022).
Some of these results come from one statement about several compounds together. Some compounds share one range, which may span the group rather than tell each member.

The molecules below were run on TUP1 gene (assay: Quantitative real time RT-PCR of TUP1 gene expression). Details: yeast growth condition, 10 μg/mL, 24 h, compared to 18S rRNA.
Assay type: cell-based, C. albicans

Structure (SMILES)	increase in the expression of TUP1 gene
O=C1NC(=S)SC1=Cc1ccc(OCc2ccc(C(F)(F)F)cc2)c(Br)c1 [SR5, 5-[3-Bromo-4-(4-trifluoromethyl-benzyloxy)-benzylidene]-2-thioxo-thiazolidin-4-one]	3-4 fold
COc1cc(C=C2SC(=S)NC2=O)ccc1OCc1ccc(C(F)(F)F)cc1 [SR4, 5-[3-Methoxy-4-(4-trifluoromethyl-benzyloxy)-benzylidene]-2-thioxo-thiazolidin-4-one]	3-4 fold
O=C1NC(=S)SC1=Cc1ccc(OCc2cccc(C(F)(F)F)c2)c(Br)c1 [SR6, 5-[3-Bromo-4-(3-trifluoromethyl-benzyloxy)-benzylidene]-2-thioxo-thiazolidin-4-one]	3-4 fold
COc1cc(C=C2SC(=S)NC2=O)ccc1OCc1cccc(C(F)(F)F)c1 [SR7, 5-[3-Methoxy-4-(3-trifluoromethyl-benzyloxy)-benzylidene]-2-thioxo-thiazolidin-4-one]	3-4 fold
